Laboratory results: patent publication US9492446B2, “Manufacturing method of solid dispersion containing itraconazole” (CTC BIO, Inc., priority 2004, dated 2016)
For at least one compound, name, drawing or mass did not settle the structure.

Tests used:
Assay type in all cases: physicochemical
[1] = Dissolution tests using media having different pH; conditions: capsule 100 mg itraconazole, paddle 100 rpm, 30 minutes
[2] = Stability test at accelerated condition; conditions: eight weeks, 40° C., 75% RH
[3] = Dissolution test of solid dispersions of example 8 and 9 (amount of polymer)
[4] = varied amount of aminoalkylmethacrylate copolymer
[5] = varied amount of polyvinylpyrrolidone

CCC(C)n1ncn(-c2ccc(N3CCN(c4ccc(OCC5COC(Cn6cncn6)(c6ccc(Cl)cc6Cl)O5)cc4)CC3)cc2)c1=O (centres unmarked) [Itraconazole]
Dissolution rate pH 1.2 ([1]; pH 1.2 medium): 3.9% | Dissolution rate pH 2.4 ([1]; pH 2.4 medium): 0.3% | Dissolution rate pH 3.0 ([1]; pH 3.0 medium): 0.1% | Appearance [2]: not changed | Content [2]: 99.8 | Change of dissolution rate pH 1.2 ([2]; pH 1.2): −5.5 | Change of dissolution rate pH 2.4 ([2]; pH 2.4): −3.7 | Change of dissolution rate pH 3.0 ([2]; pH 3.0): −3.7 | Dissolution rate pH 1.2 [3, 4]: 3.9% | Dissolution rate pH 2.4 [3, 4]: 0.3% | Dissolution rate pH 3.0 [3, 4]: 0.1% | Dissolution rate pH 1.2 [3, 5]: 3.9% | Dissolution rate pH 2.4 [3, 5]: 0.3% | Dissolution rate pH 3.0 [3, 5]: 0.1%
